From PubChem BioAssay AID1347075 (National Center for Advancing Translational Sciences (NCATS), 2019)
Screen size: about 400,000 compounds; about 5,500 (1.4%) were called active. Inconclusive results, whose numbers are uncertain, are shown with a selection of clear calls. Calls come from the whole dose curve; as a rule, active = well fitted cell-killing curve with a large enough effect; inconclusive = small, poorly fitted or top-dose-only effect, or effect the other way; inactive = flat fitted curve, though single readings scatter. Potencies beside an inconclusive call are fits to weak or partial responses and may not hold up.

assay: qHTS assay for MDR1-selective chemotherapeutics: Primary screen using the parental adenocarcinoma cell KB-3-1; conditions: KB-3-1 viability, CellTiter-Glo ATP luminescence, 72 h; activity change, negative = cytotoxic: at 46.1 µM (top of the series); note: nearly all actives have a fitted effect of over 60% in size
In short: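 KB-3-1 parental drug-naive adenocarcinoma cells in DMEM/10% FBS, incubated 72 h at 37 C with pin-transferred compounds across a concentration series. Viability by CellTiter-Glo luminescence; concentration-response curves fitted after normalization.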
% is set by controls: 0 for no effect and ±100 for the full control effect; potency is the fitted concentration of half-maximal effect.

Structure (SMILES) | Potency | activity change, negative = cytotoxic
Cc1cc(NS(=O)(=O)c2ccc(NC(=O)COc3ccc(C#N)cc3)cc2)nc(C)n1 | inactive | –
COc1cccc(C(=O)Nc2cccc(-c3nnc(-c4ccco4)o3)c2)c1 | inconclusive: 20.6 µM [cytotoxic, single point] | –
COc1ccc(-n2c(SCCC(C)C)nc3sc4c(c3c2=O)CC(C(C)C)OC4)cc1 (configuration not stated) | inactive | –
COc1ccc(/C(N)=N/OC(=O)c2ccc(Br)o2)cc1 | – | inconclusive: -1.38%
COc1ccc(N2CC(O)(c3ccc(F)cc3)[N+]3=C2CCCC3)cc1 (configuration not stated) | inactive | –
COc1cc(/C=C/c2ccc3cccc(O)c3n2)cc(OC)c1OC | inconclusive: 11.6 µM [cytotoxic, partial curve, poor fit] | –
CCCCNC(=O)CSc1nc2ccc(NC(=O)CSc3nnc(N)s3)cc2s1 | inconclusive: 16.4 µM [cytotoxic, single point] | –
Cc1cccc(N2CCN(C(=O)c3ccc(Cl)c(S(=O)(=O)NCc4ccco4)c3)CC2)c1C | active: 13 µM | –
COc1cccc(C(C)(O)c2nc(-c3cccc4cccnc34)cs2)c1 (configuration not stated) | – | inconclusive: 0%
O=C(Nc1cc(Cl)cc(Cl)c1)c1cc(S(=O)(=O)NC2CCCC2)ccc1F | inconclusive: 16.4 µM [cytotoxic, partial curve, poor fit] | –
O=[N+]([O-])C(/C=C(\Cl)[N+](=O)[O-])=C1N(Cc2ccc(Cl)nc2)CCN1Cc1ccc(Cl)nc1 | inactive | –
COc1cc2c(cc1OC)C(c1cc3ccccc3oc1=O)=NC(C)(C)C2 | inconclusive: 29.1 µM [cytotoxic, single point] | –
COc1cc(SC#N)ccc1N=Cc1c(C)[nH]n(-c2ccc(C)c(C)c2)c1=O | inconclusive: 20.6 µM [cytotoxic, partial curve, poor fit] | –
Cc1cc(Cl)c(OCCCn2ccnc2)c(Br)c1 | inactive | –
Cn1cc(S(=O)(=O)N2CCc3ccccc32)cc1C(=O)Nc1ccc(Cl)cc1 | inconclusive: 10.3 µM [cytotoxic, partial curve, poor fit] | –
COc1cccc(-c2c(C(=O)N/N=C/c3ccc(C)o3)nnn2-c2nonc2N)c1 | inconclusive: 6.51 µM [rising, partial curve, poor fit] | –
CCOc1ccc(NC(=O)c2cc(SC)ccc2Cl)cc1 | inconclusive: 20.6 µM [cytotoxic, single point] | –
CCOC(=O)N1CCN(Cc2nc3c(c(=O)n(C)c(=O)n3C)n2Cc2ccccc2)CC1 | inconclusive: 0.0184 µM [cytotoxic, full curve] | –
CCN(CC)S(=O)(=O)c1ccc(OC)c(NC(=O)c2sc3ccccc3c2Cl)c1 | inactive | –
COCCCNc1ncnc2ccc(C)cc12 | inactive | –
COc1c(/C=N/NC(N)=S)c(C)nn1-c1ccccc1 | inconclusive: 10.3 µM [cytotoxic, partial curve] | –

Structure (SMILES) | Potency | activity change, negative = cytotoxic
CN(c1ccc(F)cc1)S(=O)(=O)N1CCCC(C(=O)NCc2ccccc2Cl)C1 (configuration not stated) | active: 16.4 µM | –
CCn1cc(S(=O)(=O)N2CCc3ccccc3C2)cn1 | inactive | –
COc1ccccc1NC(=S)N1CCN(c2cccc(C)c2C)CC1 | inconclusive: 0.58 µM [cytotoxic, full curve] | –
Cc1ccc(S(=O)(=O)Nc2nc3ccccc3nc2Nc2cccc(S(=O)(=O)N3CCCC3)c2)cc1 | inconclusive: 29.1 µM [cytotoxic, partial curve, poor fit] | –
CCOC(=O)N1CCN(C(=O)c2[nH]c(C(F)(F)F)nc2-c2ccccc2)CC1 | inconclusive: 29.1 µM [cytotoxic, single point] | –
Cc1cccc(/C=N/NC(=O)Cn2nc(C)cc2C)n1 | inconclusive: 18.4 µM [rising, partial curve, poor fit] | –
O=C(CCCN1C(=O)/C(=C/c2cccc(Br)c2)SC1=S)Nc1ccccn1 | active: 5.8 µM | –
COc1cccc(-c2csc3ncnc(Sc4nnnn4C)c23)c1 | inconclusive: 29.1 µM [cytotoxic, single point] | –
Cc1nc(NC(C)c2ccccc2)c2c3c(sc2n1)CCC3 (configuration not stated) | inconclusive: 29.1 µM [cytotoxic, single point] | –
CCc1ccccc1Nc1nn2c(=O)c3ccc(C(=O)NCc4ccccn4)cc3nc2s1 | inconclusive: 1.16 µM [cytotoxic, full curve, poor fit] | –
CSc1cccc(NC(=S)NC(=O)CCc2ccccc2)c1 | inconclusive: 29.1 µM [cytotoxic, single point] | –
CC(=O)c1ccc(NC(=O)c2ccc([N+](=O)[O-])o2)cc1 | inconclusive: 20.6 µM [cytotoxic, single point] | –
O=C(N/N=C/c1cc(Br)cc(Cl)c1O)c1ccc2c(c1)OCO2 | inconclusive: 20.6 µM [cytotoxic, single point] | –
Cc1cccc(/C=C/C(=O)c2ccc(NC3=NCCCS3)cc2)c1 | inconclusive: 23.1 µM [cytotoxic, single point] | –
O=[N+]([O-])c1cc(Cl)cc(/C=N/NC(=S)Nc2cc(S(=O)(=O)N3CCOCC3)ccc2Cl)c1O | inconclusive: 32.6 µM [cytotoxic, single point] | –
C[C@H](CO)N1C[C@H](C)[C@H](CN(C)S(=O)(=O)c2cccs2)OCc2cnnn2CCCC1=O | inconclusive: 18.4 µM [rising, single point] | –
CC(Oc1cccc(Cl)c1)C(=O)Nc1nc(-c2ccccn2)cs1 (configuration not stated) | inconclusive: 13 µM [cytotoxic, partial curve, poor fit] | –
COc1cc(N=Cc2c(O)[nH]c3ccccc23)cc(OC)c1OC | inconclusive: 18.4 µM [cytotoxic, single point] | –
O=C1C(O)=CC(=C(c2ccccc2)c2ccccc2)c2ccccc21 | inconclusive: 20.6 µM [cytotoxic, partial curve, poor fit] | –
CC1(C)CC(=O)C/C(=N/NC(=O)CCCOc2ccc(Cl)cc2Cl)C1 | inconclusive: 32.6 µM [cytotoxic, single point] | –
CCOc1ccccc1NC(=O)COC(=O)CC(C)(C)CC1=NS(=O)(=O)c2ccccc2N1 | inconclusive: 29.1 µM [cytotoxic, single point] | –

Record cards (already shown). Values in the order: Potency	activity change, negative = cytotoxic
`Cc1cccc(/C=N/NC(=O)Cn2nc(C)cc2C)n1` is entered as inconclusive: 18.4 µM [rising, partial curve, poor fit]	–
`Cn1cc(S(=O)(=O)N2CCc3ccccc32)cc1C(=O)Nc1ccc(Cl)cc1` is entered as inconclusive: 10.3 µM [cytotoxic, partial curve, poor fit]	–
